Experimental data: patent publication US6416737B1, “Increasing bone strength with selected bisphosphonates” (Board of Trustees of the University of Arkansas, priority 1998, dated 2002)

System: MLO-Y4 cells stably transduced with GFP
Test: Apoptosis by nuclear morphology of MLO-Y4 cells transduced with nuclear GFP
Assay type: cell-based, murine
Settings: absence of dexamethasone; 10^−7 M
Excerpt: The retroviral vector containing the nuclear green fluorescent protein (GFP) was provided by Dr. Charles O'Brien (University of Arkansas for Medical Sciences, Little Rock, Ark.). The SV40 large T antigen nuclear localization sequence was attached to the carboxyterminus of the cDNA construct encoding GFP and subcloned into the pLXSN retroviral vector (CLONTECH, Palo Alto, Calif.). The plasmid harboring the retroviral construct was transiently transfected into the packaging cell line Phoenix Eco using SuperFect (Qiagen, Santa Clarita, Calif.). Supernatants containing retroviral particles were collected 24-48 h after transfection, and used immediately to infect cell cultures. […]
Cells presenting brown nuclear staining were considered positive. More than 500 cells per condition were analyzed. […] At least 100 cells per condition were counted.
Apoptosis induced in osteocytes was confirmed by fluorescent microscopy using MLO-Y4 cells stable transduced with green fluorescent protein. […] Numbers indicate the percentage of cells undergoing apoptosis, as determined by evaluating the nuclear morphology of>500 cells in fields selected by systematic random. […]
MLO-Y4 cells stably transduced with GFP were treated for 1 h with 10^−7 M concentration of the indicated bisphosphonates, followed by addition of 10^−6 M dexamethasone. […] The cells were evaluated under a fluorescent microscopy. […]

Compound: NCCCC(O)(P(=O)(O)O)P(=O)(O)O [alendronate, 4-amino-1-hydroxybutylidene-1,1-bisphosphonate]
- proportion of cells exhibiting chromatin condensation and/or nuclear fragmentation versus untreated: no significant differences
